Source: patent US20260167703A1
Numbering of substitutions follows the chain as printed. No constants are given. Whether binding was seen depends on the method and setting. For part of these data: Binding can be weak; no strength is given.

B1: DENV2-3H11 (antibody, V domains shown)
VH: QSVEESGGRLVTPGTPLTLTCTVSGFSLINYDMSWIRQAPGKGLEWIGMVSGGGHTNYASWANGRFTISKTSSTTMDLKITSPTTEDTASYFCGRWDIWGPGTLVTVSL
VL: AVVVTQTASPVSAAVGGTVTISCQSSQSVYDDNWLAWYQQKPGQPPKQLIYRASRLASGVPSRFSGTGSGTQFTLTISGVQCDDAATYYCLGGYVDDGDTTFGGGTEVVVK
B2: DENV4-5B11 (antibody, V domains shown)
VH: QSVEESGGRLVTPGTPLTLTCTVSGFSLSDSAMSWVRQAPGKGLEWIGYIYAGSGTTYYASWAKGRFTISKTSTTVDLKITSPTTEDTATYFCARATAYVGYGYGDDTFDPWGPGTLVTVSS
VL: AYDMTQTPASVEVAVGGTVTIKCQASQSISSYLSWYQQKPGQRPKLLIYRASTLASGVSSRFKGSGSGTEFTLTISGVQCDDAATYYCQQGYSNSDVDNVFGGGTEVVVK
B3: DENV4-7D5 (antibody, V domains shown)
VH: QSVEESGGRLVTPGTPLTLTCTVSGIDLSSWEMGWVRQAPGKGLEWIGIIFPSGTIYYANWAKGRFAISKASTTVDLKITSPTTEDTATYFCGRHGGSLYLNIWGPGTLVTVSL
VL: AQVLTQTPSPVSAAVGGTVTINCQASQSVYVNRNLAWYQQKPGQPPKVLIYEASKLASGVPSRFKGSGSGTQFTLTISGVQCDDAATYYCQGEFGCSSADCIAFGGGTEVVVK
B4: DENV4-7F2 (antibody, V domains shown)
VH: QSVEESGGRLVTPGTPLTLTCTVSGIDLSYYAMGWVRQAPGEGLECIGFIDTGDSAYYASWAKGRFTISKTSSTTVDLKITSPTPEDTATYFCGRSLSSYYDWDAFDPWGPGTLVTVSS
VL: AYDMTQTPASVEVAVGGTVTINCQASQTIGNLLAWYQQKPGQRPKLLIYRASTLASGVPSRFKGSGSGTQFTLTISGVECADAATYYCQQGASANDIDNSFGGGTAVVVK
B5: DENV4-7G4 (antibody, V domains shown)
VH: B2 VH with D30S, S31C, S34T, A52V, G53D, G55D, K71T, K79R, A96T, Y102G
VL: DVVMTQTPASVEAAVGGTVTINCQASQNINSYLSWYQQKPGQRPKLLIYRAFTLASGVSSRFKGSGSGTQFTLTISGVECADAATYYCQQGYSFSGVDNVFGGGTEVVVK
B6: DENV4-8C7 (antibody, V domains shown)
VH: B3 VH with W31Y, A67T, A71T
VL: B3 VL
B7: DENV4-9G8 (antibody, V domains shown)
VH: QSLEESGGGLVKPGASLTLTCTASGFSFSYRYWMSWVRQAPGKRPEWIACIDTGNGDTYYASRAKGRFTIMKTSSTTVTLQMTSLTVADTATYFCARSDVTLTGYGYGNLWGPGTLVTVSS
VL: DSVMTQTPASVSEPVGGTVTINCQASHNIYNSLAWYQQKPGQPPKLLIYRASTLESGVPSRVKGSGYGTEYTLTISDLECADAATYYCQQYYGGDDDGFGFGGGTEVVVK
B8: DENV4-10A11 (antibody, V domains shown)
VH: QSVEESGGRLVTPGTPLTLTCTVSGINLSFYAMGWVRQAPGKGLECVGFIDTDNSAYYASWAKGRFTISKTSTTVDLKITSPTTEDTATYFCARSLSSFYDWDAFDPWGPGTLVTVSS
VL: B4 VL with N22K, Q24L, T28S, G30S, A94N, N95S, S100A, A106E
B9: DENV2-5F4 (antibody, V domains shown)
VH: QSVEESGGRLVKPDETLTLTCTVSGIDLSNTVISWVRQAPGKGLEYIGMITPSGSAYSATWAKGRVTISRTSTTVDLKIASPTTEDTATYFCARIAWSTGRNDIWGPGTLVTVSS
VL: AAVLTQTPPSVSAAVGGTVTIKCQSSQSVYNNNALSWYQQKPGQPPKLLIYQASKLSSGVSSRFSGSGSGTHFTLTISGVQCDDAATYYCLGIYDDDVDNTFGGGTEVVVG
B10: DENV2-8D8 (antibody, V domains shown)
VH: QSLEESGGRLVKPDETLTLTCTVSGIDLSSTIITWVRQAPGKGLEYIGIIGSSGSIISANWAKGRFTISRTSTTVDLKMTSLTTEDTATYFCARIAWSTGRNDIWGPGTLVTVSS
VL: B9 VL with K22S, Q52L, K55N, S57A, S61P, H72Q, Y89H, I93V, Y94D, G111K

Assays:
Test in all cases: Luminex bead assay (antigen on MagPlex beads, MFI)
[1] = target: DENV-1 VLP (Dengue virus serotype 1, strain Puerto Rico/US/BID-V853/1998)
[2] = target: DENV-3 VLP (Dengue virus serotype 3, strain Sri Lanka D3/H/IMTSSA-SRI/2000/1266)
[3] = target: Dengue Virus Serotype 4 envelope protein (Dengue virus serotype 4, strain Philippines/H241)

| Binder | binding [1] | binding [2] | binding [3] |
| --- | --- | --- | --- |
| B1 | no binding (tested: 10000 ng/mL) | binds |  |
| B2 | no binding (tested: 10000 ng/mL) | no binding (tested: 10000 ng/mL) |  |
| B3 | no binding (tested: 10000 ng/mL) | no binding (tested: 10000 ng/mL) |  |
| B4 | no binding (tested: 10000 ng/mL) | no binding (tested: 10000 ng/mL) |  |
| B5 | no binding (tested: 10000 ng/mL) | no binding (tested: 10000 ng/mL) | no binding (tested: 10000 ng/mL) |
| B6 | no binding (tested: 10000 ng/mL) | no binding (tested: 10000 ng/mL) |  |
| B7 | no binding (tested: 10000 ng/mL) | no binding (tested: 10000 ng/mL) |  |
| B8 | no binding (tested: 10000 ng/mL) | no binding (tested: 10000 ng/mL) |  |
| B9 | no binding (tested: 10000 ng/mL) | no binding (tested: 10000 ng/mL) |  |
| B10 | no binding (tested: 10000 ng/mL) | no binding (tested: 10000 ng/mL) |  |
